# Reference: PubChem BioAssay AID493014 (National Center for Advancing Translational Sciences (NCATS), 2011)
# Hit rate of the full screen: of about 340,000 compounds, about 170 (0.05%) were called active. Inconclusive results, whose numbers are uncertain, are shown with a selection of clear calls. Calls follow the shape of the dose curve; as a rule, active = well fitted inhibition curve with a large enough effect in the signal ratio, with a control signal flat (not every such curve was filed as active); inconclusive = small, poorly fitted or top-dose-only effect, or effect the other way, or a change in a side signal; inactive = flat fitted curve, though single readings scatter; the % refers to the signal ratio. Potencies beside an inconclusive call are fits to weak or partial responses and may not hold up.
# Assay: qHTS Assay to Find Inhibitors of Chronic Active B-Cell Receptor Signaling;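 as to activity change, negative = inhibition: plate controls were basal doxycycline-induced cells for no effect and cells given 10 µM MG132 for full effect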
# Conditions: ABC-DLBCL IkBa-CBG/CBR reporter, luminescence ratio (green luciferase fused to IkBa over red control in TMD8 lymphoma cells), 4 h; activity change, negative = inhibition: at 46.1 µM (top of the series)
# Outline: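 Concentration-response series (up to 46 uM) were applied to TMD8 dual-reporter cells for 4 h at 37C with doxycycline. Green/red ratio, after filter-overlap correction, defined %Activity; red signal alone was normalised to basal cells and zero luminescence.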
# Potency is read from the fitted curve at half-maximal effect.
Structure (SMILES),"activity change, negative = inhibition",Potency
N#Cc1c(NCCCO)nc(-c2ccco2)c2c1CCCC2,inactive: 22.5%,–
O=[N+]([O-])c1ccc(C2=Nn3c(Cn4nnc5ccccc54)nnc3SC2)cc1,–,"inconclusive: 20 µM [falling, partial curve, poor fit]"
COC(=O)CSc1ccc(-c2nc3ccc(C)cc3[nH]2)cn1,–,"inconclusive: 18.4 µM [falling, partial curve]"
COc1ccc(C2C(C(=O)c3sc(C)nc3C)=C(O)C(=O)N2CCN(C)C)cc1 (centres undefined),inconclusive: -0.208%,–
CCC(=O)Oc1ccc2c(c1)OC1(OC(C)=O)OC(C)CC1=C2C (centres undefined),inconclusive: -15.7%,–
CCC[C@@H](O)c1cc2cc(OC)c(OC)cc2c(=O)o1,inconclusive: -4.46%,–
O=C(CCC(=O)c1cccs1)NCc1cccnc1,inconclusive: 7.85%,–
CCN(CC)S(=O)(=O)c1cc(OC)c(Cl)cc1Cl,inconclusive: -14.5%,–
CC(=O)Nc1ccc(S(=O)(=O)NC2(C(F)(F)F)NC(=O)N(C3CCCCC3)C2=O)cc1 (centres undefined),inconclusive: 2.43%,–
CC(=O)c1c(-c2ccc(C)cc2)nc2c3ccccc3ccn12,inconclusive: 6.28%,–
COC(=O)c1sc(=S)n(-c2ccccc2)c1N,inconclusive: 7.12%,–
Cc1nn(-c2ccccc2)c2nc(-c3ccncc3)cc(C(=O)NCc3ccco3)c12,inconclusive: 10.5%,–
COC(=O)c1ccccc1NC(=O)CSc1nc(Nc2ccccc2)nc(N2CCOCC2)n1,inconclusive: -5.05%,–
Cc1cc(NC(=O)CSc2ncc(C(=O)Nc3ccc(Cl)cc3)c(=O)n2C)no1,–,"inconclusive: 22.4 µM [falling, single point]"
Cc1sc(NC(=O)c2ccco2)nc1-c1ccc2c(c1)CC(C)N2C(=O)C1CC1 (centres undefined),inconclusive: -11.4%,–
O=C(Nc1cccc2ccccc12)NC1CCCCC1O (centres undefined),–,"inconclusive: 23.1 µM [falling, partial curve, poor fit]"
COc1cccc(-c2nnc(SC(C(=O)c3c[nH]c4ccccc34)c3ccccc3)n2C)c1 (centres undefined),inconclusive: -1.26%,–
CCOc1ccc(NC(=O)c2ccccn2)cc1,–,"inconclusive: 3.66 µM [falling, partial curve]"
Cc1ccc(Cl)cc1NC(=S)N1CCC(c2ccccc2)C1 (centres undefined),inconclusive: -1.61%,–
O=C(Cc1noc2ccccc12)NNC(=S)Nc1ccccc1,inconclusive: -19.3%,–
CCCn1cc(C(CC(=O)O)C(=O)O)c2ccccc21 (centres undefined),–,"inconclusive: 18.4 µM [falling, single point]"
CCOc1ccccc1NC(=O)C(NCCN(C)C)c1ccccc1 (centres undefined),inactive: 8.62%,–
COC(=O)COc1ccc(S(=O)(=O)Nc2ccc(NC(C)=O)cc2)cc1,inconclusive: 6.92%,–
Cc1cccc(N2C(=O)N3[C@@H]4c5ccccc5OC[C@@H]4[C@@H](c4ccccc4)[C@@]3(C)C2=O)c1,inconclusive: -7.68%,–
COc1ccc(-c2oc3ccccc3c2C(=O)Oc2ccccc2)cc1,–,"inconclusive: 17.8 µM [rising, single point]"
O=C(NC1CCCCCCC1)c1c(O)c2ccccc2[nH]c1=O,inconclusive: 12.7%,–
O=C(Cn1ncc(Cl)c(Cl)c1=O)N1CCN(S(=O)(=O)c2ccc3ccccc3c2)CC1,–,"inconclusive: 29.1 µM [rising, single point]"

Structure (SMILES),"activity change, negative = inhibition",Potency
COc1ccnc(NCc2cccnc2)c1C#N,inactive: -4.34%,–
CC(=O)N(O)CCCCCNC(=O)CCC(=O)N(O)CCCCCNC(=O)CCC(=O)N(O)CCCCCN,inactive: -5.17%,–
Cc1ccc(C)n1-c1ccc(N2CCOCC2)c([N+](=O)[O-])c1,inactive: 1.39%,–
O=C(Nc1ccccc1C(=O)N1CCCC1)c1ccc(Cl)c([N+](=O)[O-])c1,inconclusive: 1.27%,–
COc1ccccc1Cn1c(=O)c2ccccc2n2c(SCC(=O)N3CCCCC3)nnc12,inactive: 9.33%,–
Cc1ccc(S(=O)(=O)c2nc(S(=O)(=O)c3ccccc3)sc2N2CCN(C)CC2)cc1,inactive: -8.73%,–
O=C(c1cccnc1)N1CCN(Cc2cccc(Br)c2)CC1,–,"inconclusive: 16.4 µM [falling, partial curve, poor fit]"
CN1C(=O)CS/C1=N\NC(=O)COc1cccc2cccnc12,inactive: -17.2%,–
O=C(/C=C/c1ccc(S(=O)(=O)N2CCOCC2)cc1)NC(=S)NCCCn1ccnc1,inconclusive: -7.15%,–
O=C(CNC(=O)N1CC(=O)Nc2ccccc21)Nc1ccc(Cl)cc1,inactive: -24.6%,–
CNC(=O)c1[nH]cnc1C(=O)Nc1ccccc1OC,inconclusive: 23.9%,–
CCn1c(=O)cc(OCC(=O)NCCCN2CCC(C)CC2)c2ccccc21,–,"inconclusive: 2.91 µM [falling, full curve]"
COc1ccc(-c2nnc3ccc(SC(C(C)=O)C(C)=O)nn23)cc1OC,inactive: -7.29%,–
Nc1nc(SCC(=O)Nc2ccccc2)nc2nc3c(cc12)CCCC3,inconclusive: 0.42%,–
C=CCNC(=S)N/N=C/c1ccccc1OCCOc1ccccc1,inconclusive: 1.93%,–
CSc1ccccc1NC(=O)c1ccc(N2CC3CC(C2)c2cccc(=O)n2C3)c(NC(=O)c2ccncc2)c1 (centres undefined),inconclusive: -13.5%,–
COc1ccc(CCNC(=O)Nc2cccs2)c(OC)c1,inconclusive: 7.5%,–
O=C(N/N=C/c1ccccc1)c1[nH]ncc1Br,inconclusive: 288%,–
Cc1cc(=O)[nH]c(SCC2COC3(CCCCC3)O2)n1 (centres undefined),inconclusive: -2.6%,–
CC1CCN(S(=O)(=O)c2ccc(NC(=O)Cn3nnc(-c4ccccc4F)n3)cc2)CC1,inconclusive: 0.759%,–
COc1cc(C2Nc3ccccc3C(=O)N2c2ccccc2)ccc1O (centres undefined),–,"inconclusive: 5.8 µM [falling, single point]"
COc1ccc(CC(=O)NCc2ccc3c(c2)CCN3C(C)=O)cc1,inconclusive: 11.8%,–
Brc1ccc(OCc2nc(-c3ccccn3)n[nH]2)cc1,–,"inconclusive: 16.4 µM [falling, single point]"
C/C(CC(=O)Nc1ccc(C)c(Cl)c1)=N\NC(=O)c1ccncc1,–,"inconclusive: 35.5 µM [falling, single point]"
CC(C)[C@H](NC(=O)N1c2ccccc2NC(=O)[C@@H]1C(C)C)C(=O)N1CCC[C@H]1C(=O)O,–,"inconclusive: 5.62 µM [falling, single point]"
CSc1nnc(NC(=O)c2ccco2)s1,inconclusive: -12.3%,–
CCCCCCNC(=O)CC(NS(=O)(=O)c1ccc(NC(C)=O)cc1)C(C)C (centres undefined),inconclusive: 7.79%,–

Structure (SMILES),"activity change, negative = inhibition",Potency
CC(C)(C)OC(=O)[C@H]1[C@H](c2ccc([N+](=O)[O-])cc2)C2(C(=O)c3ccccc3C2=O)C2c3ccccc3C=NN21 (some centres undefined),inconclusive: 10.5%,–
O=C1C=C(O)CC(c2ccc(Cl)c(Cl)c2)C1 (centres undefined),inconclusive: -0.227%,–
COc1ccc(CCN(C)c2ccc(C(N)=O)cc2[N+](=O)[O-])cc1OC,inactive: 1.45%,–
CC(=O)c1cccc(NC(=O)C(=O)c2cn(CC(=O)N3CCCCC3)c3ccccc23)c1,–,"inconclusive: 1.78 µM [falling, full curve, poor fit]"
CC1(C)C(c2cccs2)=[N+]([O-])C2(CCCCC2=O)N1O (centres undefined),inconclusive: 2.43%,–
COc1ccc(-c2cc(-c3ccccc3)nc(Cl)n2)cc1OC,inconclusive: 0.795%,–
O=C(Nc1ccc(N2CCN(C(=O)c3ccc(Cl)cc3)CC2)cc1)c1ccc2c(c1)OCCO2,inconclusive: -4.04%,–
COc1ccc(/C=N/NC(=O)c2ccccc2O)cc1COc1ccccn1,–,"inconclusive: 35.5 µM [rising, single point]"
O=C(NCc1ccco1)C1CC(=O)N(c2ccc(F)cc2)C1 (centres undefined),inconclusive: 8.41%,–
O=S(=O)(c1cccc2cnccc12)N1CCNCC1,inactive: -4.19%,–
Cc1cc(Nc2nc(Cl)c(Cl)cc2Cl)n(-c2ccccc2)n1,inconclusive: -5.44%,–
COc1cc(/C=N/NC(=S)Nc2cccnc2)cc(OC)c1OC,–,"inconclusive: 22.4 µM [cytotoxic, partial curve]"
COc1ccc(-c2nc(-c3ccc(Br)o3)no2)cc1,inactive: 14.3%,–
NS(=O)(=O)c1cc(C(=O)NCC2CCCCC2)ccc1Cl,inconclusive: 8.86%,–
O=C(CCn1c2c(c3ccccc31)CCCC2)NNC(=O)c1ccc([N+](=O)[O-])cc1,inconclusive: -6.48%,–
COc1ccc(C2C(C(=O)OCC(=O)NC(C)(C)C)CCC(=O)N2c2ccc(C)cc2)cc1OC (centres undefined),inconclusive: 13.1%,–
CC(=O)/C(C#N)=C1\NC(=O)C(Cc2ccc(C)c(Cl)c2)S1 (centres undefined),inconclusive: 25.8%,–
CN(C(=O)Cc1c(C(=O)O)n(C)c2ccccc12)c1ccc(F)cc1,inactive: -0.146%,–
COc1ccc(OCc2ccc(/C=N\NC(=O)c3sccc3C)o2)cc1,–,"inconclusive: 11.2 µM [falling, partial curve]"
CC(=O)Nc1ccc(Oc2ncccn2)c(Cl)c1,inconclusive: -1.64%,–
CC[C@@H]1CCCCc2ccccc2[C@H](C(=O)C[C@@H](O)CC(C)=O)OC1=O,–,"inconclusive: 0.58 µM [falling, partial curve, poor fit]"
Cc1ccc(C(=O)/C=C2\NCCNC2=O)cc1,–,"inconclusive: 29.1 µM [falling, single point]"
COc1ccc(C(CCN2CCCC(C)C2)c2c(OC)cc(OC)c3c(-c4ccccc4)cc(=O)oc23)cc1 (centres undefined),–,"inconclusive: 15.8 µM [falling, partial curve, poor fit]"
CC(=O)Oc1cccc(N2C(=O)c3cccc4c([N+](=O)[O-])ccc(c34)C2=O)c1,inconclusive: 10.3%,–
O=C1NC(=O)c2cc(NC(=O)C3CCCCC3)ccc21,–,"inconclusive: 20.6 µM [falling, partial curve, poor fit]"

# 15 consecutive compounds out of the list so far, for reference:
Structure (SMILES),"activity change, negative = inhibition",Potency
CC1(C)C(c2cccs2)=[N+]([O-])C2(CCCCC2=O)N1O (centres undefined),inconclusive: 2.43%,–
COc1ccc(-c2cc(-c3ccccc3)nc(Cl)n2)cc1OC,inconclusive: 0.795%,–
O=C(Nc1ccc(N2CCN(C(=O)c3ccc(Cl)cc3)CC2)cc1)c1ccc2c(c1)OCCO2,inconclusive: -4.04%,–
COc1ccc(/C=N/NC(=O)c2ccccc2O)cc1COc1ccccn1,–,"inconclusive: 35.5 µM [rising, single point]"
O=C(NCc1ccco1)C1CC(=O)N(c2ccc(F)cc2)C1 (centres undefined),inconclusive: 8.41%,–
O=S(=O)(c1cccc2cnccc12)N1CCNCC1,inactive: -4.19%,–
Cc1cc(Nc2nc(Cl)c(Cl)cc2Cl)n(-c2ccccc2)n1,inconclusive: -5.44%,–
COc1cc(/C=N/NC(=S)Nc2cccnc2)cc(OC)c1OC,–,"inconclusive: 22.4 µM [cytotoxic, partial curve]"
COc1ccc(-c2nc(-c3ccc(Br)o3)no2)cc1,inactive: 14.3%,–
NS(=O)(=O)c1cc(C(=O)NCC2CCCCC2)ccc1Cl,inconclusive: 8.86%,–
O=C(CCn1c2c(c3ccccc31)CCCC2)NNC(=O)c1ccc([N+](=O)[O-])cc1,inconclusive: -6.48%,–
COc1ccc(C2C(C(=O)OCC(=O)NC(C)(C)C)CCC(=O)N2c2ccc(C)cc2)cc1OC (centres undefined),inconclusive: 13.1%,–
CC(=O)/C(C#N)=C1\NC(=O)C(Cc2ccc(C)c(Cl)c2)S1 (centres undefined),inconclusive: 25.8%,–
CN(C(=O)Cc1c(C(=O)O)n(C)c2ccccc12)c1ccc(F)cc1,inactive: -0.146%,–
COc1ccc(OCc2ccc(/C=N\NC(=O)c3sccc3C)o2)cc1,–,"inconclusive: 11.2 µM [falling, partial curve]"
